PubChem BioAssay AID1671190 (National Center for Advancing Translational Sciences (NCATS), 2021)
“And” between values parts separate entries of the source, which are not always exact repeats. Equal values may be shown once. Among all 580,000 compounds or so, about 6,100 (1.1%) were called active. Inconclusive means that the source gave no clear call. Such entries were picked first, then a sample of the others. Calls follow the shape of the dose curve; as a rule, active = well fitted inhibition curve with a large enough effect; inconclusive = small, poorly fitted or top-dose-only effect, or another doubt; inactive = no such curve, though single readings can be large or run the other way. Potencies of inconclusive entries are doubtful fits and often do not repeat. Where a structure was tested more than once in an assay, its records may differ in their call.

Protein sequences, listed by entry. Tags and fused reporters are not part of them. Lines headed by an entry give the natural chain unless they say otherwise; changes in a name come on top.
UniProt P18054: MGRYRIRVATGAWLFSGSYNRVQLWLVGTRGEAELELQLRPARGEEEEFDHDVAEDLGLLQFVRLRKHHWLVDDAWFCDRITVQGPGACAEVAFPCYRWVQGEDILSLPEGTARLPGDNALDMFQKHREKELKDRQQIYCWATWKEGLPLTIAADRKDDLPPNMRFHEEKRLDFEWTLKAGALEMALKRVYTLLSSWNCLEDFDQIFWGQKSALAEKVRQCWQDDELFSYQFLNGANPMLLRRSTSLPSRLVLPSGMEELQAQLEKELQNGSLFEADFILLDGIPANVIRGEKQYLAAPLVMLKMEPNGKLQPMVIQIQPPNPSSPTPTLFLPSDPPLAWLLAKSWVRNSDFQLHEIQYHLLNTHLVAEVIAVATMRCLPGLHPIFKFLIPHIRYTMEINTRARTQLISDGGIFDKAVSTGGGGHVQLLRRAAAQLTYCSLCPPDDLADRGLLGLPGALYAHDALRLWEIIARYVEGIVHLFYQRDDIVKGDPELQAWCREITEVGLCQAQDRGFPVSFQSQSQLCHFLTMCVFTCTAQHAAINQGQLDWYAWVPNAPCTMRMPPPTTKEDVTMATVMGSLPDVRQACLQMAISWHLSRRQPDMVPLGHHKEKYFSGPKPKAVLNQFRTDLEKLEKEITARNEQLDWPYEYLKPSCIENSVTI

The compounds below were run against Polyunsaturated fatty acid lipoxygenase ALOX12 (Homo sapiens) (UniProt P18054) (assay: Primary qHTS assay for inhibitors of human arachidonate 12S-lipoxygenase (ALOX12): Round 2). Details: purified 12hLO, xylenol orange hydroperoxide absorbance; activity change, negative = inhibition: at 108 µM (top of the series) unless noted.
How it was run: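 Purified human 12hLO at 150 nM in 25 mM Hepes, 0.01% Triton X-100, pH 7.0, preincubated 15 min at room temperature with compound. Reaction started with 40 uM arachidonic acid, 30 min at room temperature. Hydroperoxide measured by Fe-xylenol orange, 573/405 nm absorbance ratio.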
% is scaled to controls: 0 for no effect and ±100 for the full control effect; potency is read from the fitted curve at half-maximal effect.

Row | Structure (SMILES) | Potency | activity change, negative = inhibition
1 | CCOc1ccc(C(=O)Nc2cc(NC(=O)c3ccc(OCC)c(Cl)c3)cc(C(=O)O)c2)cc1Cl | inconclusive: 28.2 µM [inhibitor, partial curve, poor fit] | –
2 | Cn1c(C(=O)NC2CCCC2)cc2c(=O)n(C)c3ccccc3c21 | inactive | –
3 | Cc1ccc(Cn2c(C)nc3c(c2=O)c2nc4ccccc4nc2n3Cc2ccco2)cc1 | inconclusive: 1.41 µM [inhibitor, full curve, poor fit] | –
4 | O=C(COC(=O)C1CCN(c2ccc(C(F)(F)F)cn2)CC1)Nc1cccc(F)c1 | – | inconclusive: -43.2% [inhibitor]
5 | CCOC(=O)N1CCC(NC(=O)c2ccc3c(c2)N=C(CC)c2cc(C)ccc2S3)CC1 | – | inactive: -14.4%
6 | Cc1nn(-c2ccccc2)c(Cl)c1/C=N/NC(=O)c1ccccc1F | – | inactive: 4.77%
7 | CN(Cc1ccc2nonc2c1)Cc1ccccc1OCC(O)CN1CCCCC1 (centres undefined) | – | inactive: 57.1%
8 | O=C(O)CCN1C(=O)/C(=C\c2cccc(OCC(=O)Nc3ccc(Cl)cc3)c2)SC1=S | inconclusive: 112 µM [inhibitor, single point] | –
9 | CN(C)c1ccc(-c2nnnn2[C@H]2CO[C@H]3[C@@H]2OC[C@H]3OC(=O)Nc2cccc(C#N)c2)cc1 | inconclusive: 7.94 µM [inhibitor, full curve] | –
10 | Cc1ccc(CN2CCN(CC(=O)Nc3cccc4nsnc34)CC2)o1 | – | inactive: -12.2%
11 | O=C(c1ccc(NS(=O)(=O)c2ccc(F)cc2)cc1)N1CCCCC1 | inconclusive: 39.8 µM [inhibitor, partial curve, poor fit] | –
12 | N#Cc1ccccc1Cn1c(=O)n(CCCC(=O)NCc2ccc3c(c2)OCO3)c(=O)c2ccccc21 | inconclusive: 56.2 µM [inhibitor, partial curve, poor fit] | –
13 | CCOC(=O)C1CCN(C(=O)Cc2cccn2-c2cccc(Cl)c2)CC1 | inconclusive: 15.8 µM [inhibitor, full curve, poor fit] | –
14 | COc1ccc(/C=N/NC(=O)Cn2nnc3ccccc32)cc1OC | – | inactive: -13.2%
15 | COCCOC1CCOC2(CCN(C(=O)Cc3cccc(C)c3)CC2)C1 (centres undefined) | – | inactive: 29.7%
16 | COCCn1c(N2CCN(c3ccc(OC)cc3)CC2)nc2c1c(=O)[nH]c(=O)n2C | inconclusive: 28.2 µM [inhibitor, partial curve, poor fit] | –
17 | Cn1cnc(S(=O)(=O)N2CCCC(C(=O)NCc3ccc(Cl)cc3)C2)c1 (centres undefined) | inconclusive: 89.1 µM [inhibitor, partial curve, poor fit] | –
18 | Cc1oc2ccc(O)c(CN3CCOCC3)c2c1C(=O)Nc1cccc(C(F)(F)F)c1 | – | inconclusive: -33.7% [inhibitor]
19 | CCOCCOC1CCN(C(=O)Nc2ccc(C(=O)OC)cc2)CC1 | – | inactive: 51.1%
20 | Cc1ccc(NC(=O)N2CCCC2C(=O)NCC2CCCCC2)cc1 (centres undefined) | inconclusive: 17.8 µM [inhibitor, partial curve, poor fit] | –
21 | CCCOc1ccc(NC(=O)CCC)c2cccnc12 | – | inactive: -0.0211%
22 | CSc1nncc(/C(C)=N\Nc2cccc(C)c2)n1 | inconclusive: 22.4 µM [inhibitor, partial curve, poor fit] | –
23 | COc1ccc2c(c1)c(C(=O)CNc1nc(C)cs1)c(C)n2C | active: 8.91 µM | –

Row | Structure (SMILES) | Potency | activity change, negative = inhibition
24 | O=C(CCc1c[nH]c2ccccc12)NCC12CCCC=C1N(CC1CC1)C(=O)CC2 (centres undefined) | inconclusive: 20 µM [inhibitor, full curve, poor fit] | –
25 | c1coc(C(CNC2CCCC2)N2CCCC2)c1 (centres undefined) | inconclusive: 5.62 µM [inhibitor, full curve, poor fit] | –
26 | CS(=O)(=O)c1ccc(C(=O)NCC2(N3CCOCC3)CCCCC2)cc1 | – | inactive: 0.928%
27 | Cc1ccc(Cn2c(SCC(O)CO)nc3c2c(=O)[nH]c(=O)n3C)cc1 (centres undefined) | inconclusive: 39.8 µM [inhibitor, partial curve, poor fit] | –
28 | O=C1COc2ccc(NC(=O)c3ccccc3C(=O)O)cc2N1 | – | inactive: -21.6%
29 | CNC(=O)CCn1ncc2cc(OC3CCc4cccc(-c5ccc(OC)cc5)c43)ccc21 (centres undefined) | inconclusive: 44.7 µM [inhibitor, partial curve] | –
30 | COc1cc(/C=N/O)c(Br)cc1OCc1ccccc1 | inconclusive: 141 µM [inhibitor, single point] | –
31 | Cc1cccc(NC(=O)C(=O)NCc2ccc3c(c2)OCO3)c1C | inconclusive: 35.5 µM [inhibitor, single point] | –
32 | CC(=O)N1CCCc2cc(S(=O)(=O)N3CCN(c4ccccc4F)CC3)ccc21 | – | inactive: 1.13%
33 | O=C(O)COc1ccccc1/C=N/NC(=O)CSc1nc2ccccc2n1Cc1ccc(Cl)cc1 | inconclusive: 100 µM [inhibitor, partial curve, poor fit] | –
34 | COc1cccc(C2C(C(=O)Nc3ccc(Cl)cc3)=C(C)Nc3nc4ccccc4n32)c1OC (centres undefined) | – | inactive: 0%
35 | O=c1[nH]c(=O)n(Cc2ccccc2)c2c1CN(Cc1ccccc1Cl)CN2 | – | inactive: -46.2%
36 | COc1ccc(-c2csc(C(O)c3cccc(OC)c3)n2)cc1 (centres undefined) | – | inactive: 0.928%
37 | COc1ccc(S(=O)(=O)NC[C@H]2O[C@@H](CO)[C@@H](O)[C@H]2N2CCc3ccccc3C2)cc1 | inconclusive: 35.5 µM [inhibitor, full curve] | –
38 | COc1ccc(-c2oc3ccccc3c(=O)c2OC(C)=O)cc1 | inconclusive: 44.7 µM [inhibitor, partial curve, poor fit] | –
39 | CCc1sc(C(=O)Nc2nc(C)cs2)cc1C | inconclusive: 100 µM [inhibitor, single point] | –
40 | CCc1cccc(NC(=O)Cc2csc(NC(=O)c3ccoc3C)n2)c1 | – | inactive: -12.9%
41 | CC(C)(C)C(=O)OCc1nc(-c2ccc(O)c(O)c2)cs1 | inconclusive: 126 µM [inhibitor, single point] | –
42 | COc1ccc(CN2CCc3nc(C4CC4)nc(-c4ccc(O)cc4)c3CC2)cc1 | – | inactive: -14.9%
43 | NC(=NCCCCCCN=C(N)/N=C(\N)Nc1ccc(Cl)cc1)/N=C(\N)Nc1ccc(Cl)cc1 | active: 39.8 µM and active: 31.6 µM | –
44 | CCOC(=O)N1CCC(N2CCCC(C(=O)c3cccc(OC)c3)C2)CC1 (centres undefined) | inconclusive: 44.7 µM [inhibitor, partial curve, poor fit] | –
45 | Cc1ccc(S(=O)(=O)N2CCN(C(=O)c3cc4ccc(F)cc4nc3C)CC2)c(C)c1 | inconclusive: 50.1 µM [inhibitor, partial curve, poor fit] | –
46 | CCCCN(C(=O)NC(=O)Nc1nc2ccc(OC)cc2s1)S(C)(=O)=O | – | inactive: -15.7% [at 57.4 µM]

Row | Structure (SMILES) | Potency | activity change, negative = inhibition
47 | CN(C)c1ccc(C(=O)OCC(=O)NC2CCCCCC2)cc1 | – | inactive: -9.35%
48 | CC(=O)c1ccc(S(=O)(=O)Nc2ccc(C(=O)N3c4ccccc4CC3C)cc2)cc1 (centres undefined) | – | inactive: -2.67%
49 | COC(=O)c1ccc(COC(=O)/C=C/c2cccs2)o1 | inconclusive: 56.2 µM [inhibitor, partial curve, poor fit] | –
50 | C/C(=N\Nc1ccc(S(=O)(=O)Nc2ccccc2)cc1[N+](=O)[O-])c1ccncc1 | – | inactive: 0%
51 | COCc1nc(C2CCCN(C(=O)c3cccc(C)c3)C2)no1 (centres undefined) | – | inactive: 30.2%
52 | Cc1cc(C)c(S(=O)(=O)NCC2CCC(C(=O)NCCCN3CCC(C)CC3)CC2)c(C)c1 (centres undefined) | – | inactive: -20.8%
53 | O=C1NCc2ccccc2CC12CCN(Cc1ccccc1OC(F)(F)F)C2 (centres undefined) | – | inactive: 4.44% [at 6.33 µM]
54 | CCCCCC(=O)Nc1cccc(C2=NOC3(C2)C[C@@H](C(N)=O)N(C(=O)Cc2ccc([N+](=O)[O-])cc2)C3)c1 (some centres undefined) | inconclusive: 35.5 µM [inhibitor, partial curve, poor fit] | –
55 | CCCCOc1ccc(Oc2ccc(C#N)c(C#N)c2)cc1 | – | inactive: 2.5%
56 | O=C(O)CCNc1ccc2c(c1)OCCO2 | inconclusive: 70.8 µM [inhibitor, partial curve, poor fit] | –
57 | COc1ccccc1C1CC(=O)NC(SCC(=O)Nc2ccccc2)=C1C#N (centres undefined) | inconclusive: 35.5 µM [inhibitor, partial curve, poor fit] | –
58 | COc1ccc(-c2noc(CCCC(=O)Nc3ccc(C(N)=O)cc3)n2)cc1 | – | inactive: -15.7%
59 | Cc1ccc(Cc2c(C)nc3nc(SCC(=O)NCCCN4CCCCCC4)nn3c2C)cc1 | inconclusive: 44.7 µM [inhibitor, partial curve, poor fit] | –
60 | NC(=O)c1nnn([C@H]2C[C@H]3C(=O)N4CC[C@H](SCc5ccc(F)cc5)C[C@H]4C(=O)N3C2)c1C(N)=O | – | inactive: -12.6%
61 | COc1ccccc1CNC(=S)NCc1ccc(Cl)cc1 | inconclusive: 44.7 µM [inhibitor, partial curve, poor fit] | –
62 | COc1cccc(CN2CCCN(CC(=O)Nc3ccc4c(c3)OCCO4)S2(=O)=O)c1 | inconclusive: 126 µM [inhibitor, partial curve, poor fit] | –
63 | COc1ccc(N2CC(C)(C)C[C@H]2/C=C/C(=O)OC(C)(C)C)cc1 | inconclusive: 28.2 µM [inhibitor, partial curve, poor fit] | –
64 | COc1cc(/C=N\Nc2ccc([N+](=O)[O-])cc2)ccc1OCC(=O)Nc1ccc(C)c(C)c1 | inconclusive: 50.1 µM [inhibitor, partial curve, poor fit] | –
65 | CC(C)CCN(CC(N)=O)C1CC1 | – | inactive: -26%
66 | Cc1ccc(-c2ncc(C(=O)O)c(-c3ccncc3)n2)cc1 | inconclusive: 17.8 µM [inhibitor, full curve, poor fit] | –
67 | CCC(=O)NCC(=O)OCC(=O)c1ccccc1 | – | inactive: -18.2%
68 | CCOC(=O)C1=C[C@@H](C(C)(C)C)N(S(=O)(=O)c2ccc(C)cc2)[C@H]1c1cccc2ccccc12 | inconclusive: 39.8 µM [inhibitor, single point] | –
69 | O=C(Nc1cccc(F)c1)Nc1ccc2sc(NS(=O)(=O)c3ccccc3)nc2c1 | inconclusive: 31.6 µM [inhibitor, partial curve, poor fit] | –

Whole records as entered above. Values in the order: Potency | activity change, negative = inhibition
CC(=O)c1ccc(S(=O)(=O)Nc2ccc(C(=O)N3c4ccccc4CC3C)cc2)cc1 (centres undefined) is listed as – | inactive: -2.67%
CC(C)CCN(CC(N)=O)C1CC1 is listed as – | inactive: -26%
Cc1cc(C)c(S(=O)(=O)NCC2CCC(C(=O)NCCCN3CCC(C)CC3)CC2)c(C)c1 (centres undefined) is listed as – | inactive: -20.8%
COc1ccccc1C1CC(=O)NC(SCC(=O)Nc2ccccc2)=C1C#N (centres undefined) is listed as inconclusive: 35.5 µM [inhibitor, partial curve, poor fit] | –
